Measurements taken from PubChem BioAssay AID662 (National Center for Advancing Translational Sciences (NCATS), 2007).
The list shows a part of the results. These are further read-outs of the screen, such as a control signal, another cell line or another target. No call is given for them. Most of these compounds were active or inconclusive in the main read-out, so they are no random draw. Potencies come from curve fits of mixed quality, noted in brackets.

Experiment: Cell signaling CRE-BLA (Fsk stim)
Settings: CHO CRE-bla reporter (cAMP response element driving beta-lactamase), forskolin EC10, beta-lactamase ratio; measured here: 460 nm blue channel
Summary of the method: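 Cells were plated overnight at 37 °C, exposed to compound titrations plus EC10 NKH 477 for 3 h, then given CCF4 dye for 2 h at room temperature. Blue/green (460/530 nm) ratio was converted to %Activity and AC50 values calculated.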

Row | SMILES | AC50
1 | CCOc1ccc(-c2cc(C(=O)NCCCN3CCN(CC)CC3)c3ccccc3n2)cc1 | 25.1 µM [rising, single point]
2 | Cc1nc2cnc(Oc3ccccc3)nc2n(C2CC2)c1=O | 25.1 µM [rising, single point]
3 | COCCn1c(SCc2ccccc2Cl)nc2c1c(=O)[nH]c(=O)n2C | 10 µM [rising, single point]
4 | COc1cc2[nH]c(=S)n(CC3CCCO3)c(=O)c2cc1OC (centres undefined) | 12.6 µM [rising, partial curve]
5 | Cc1ccc2c(c1)N(CCC(=O)NCCCOC(C)C)C(=O)C(C)O2 (centres undefined) | 15.8 µM [rising, partial curve, poor fit]
6 | Cc1cccn2c(=O)c3cc(C(=O)NC(C)C)c(=N)n(Cc4ccncc4)c3nc12 | 12.6 µM [rising, partial curve]
7 | CCOC(=O)c1c(C)[nH]c(C(=O)Cn2c(=O)oc3ccccc32)c1C | 1 µM [falling, single point]
8 | Cc1cc(C(=O)CSc2nc3ccccc3[nH]2)c(C)n1C | 10 µM [rising, partial curve]
9 | CSc1nc(N)nc(SCC(=O)c2ccc(C)cc2)c1C#N | 10 µM [rising, partial curve]
10 | O=C(OCC(=O)N1CCCC1)c1ccccc1OCc1ccccc1 | 10 µM [falling, partial curve]
11 | CCC(=O)N1CCN(C(=O)CC)C1c1ccccc1 | 0.501 µM [falling, full curve, poor fit]
12 | CN(C)c1ccc(C(=O)C(O)c2ccc(C(C)(C)C)cc2)cc1 (centres undefined) | 15.8 µM [rising, partial curve]
13 | Cc1ccc(Cn2nnc3c(=O)[nH]c(C4CCN(S(=O)(=O)c5ccc(F)cc5)CC4)nc32)cc1 | 10 µM [rising, single point]
14 | CS(=O)(=O)N1CCCC(C(=O)NCc2ccccn2)C1 (centres undefined) | 1 µM [rising, full curve, poor fit]
15 | COCCNc1cc(C)nc2c3c(C)cc(C)nc3nn12 | 10 µM [rising, partial curve]
16 | CCOC(=O)N1CCC(NC(=O)Cn2ncc3c4ccccc4n(C)c3c2=O)CC1 | 0.501 µM [falling, full curve]
17 | CCNc1nc(C)c2cc(Br)c(=O)n(CC)c2n1 | 0.794 µM [rising, full curve]
18 | CCCCCCCCCCCCCCCCOC[C@@H](COCC(F)(F)F)OP(=O)(O)OCO | 25.1 µM [falling, partial curve]
19 | CCOc1ccc(-n2c(SCC(=O)Nc3cc(C)on3)nc3c([nH]c4ccccc43)c2=O)cc1 | 1.26 µM [rising, full curve]

As a short view, some entries already given.
Row | SMILES | AC50
14 | CS(=O)(=O)N1CCCC(C(=O)NCc2ccccn2)C1 (centres undefined) | 1 µM [rising, full curve, poor fit]
15 | COCCNc1cc(C)nc2c3c(C)cc(C)nc3nn12 | 10 µM [rising, partial curve]
